Laboratory results as given in paper PMC7652866.
Results are given in words; binding and its absence hold for the method and conditions named. Binding seen in cells or lysates may run through a third protein. Some results given as binding are weak or reduced against the parent protein; the word gives no strength.

Target: T1, nucleoporin NUP88 (human (endogenous in MRC5)) (UniProt Q99567)
T1 sequence: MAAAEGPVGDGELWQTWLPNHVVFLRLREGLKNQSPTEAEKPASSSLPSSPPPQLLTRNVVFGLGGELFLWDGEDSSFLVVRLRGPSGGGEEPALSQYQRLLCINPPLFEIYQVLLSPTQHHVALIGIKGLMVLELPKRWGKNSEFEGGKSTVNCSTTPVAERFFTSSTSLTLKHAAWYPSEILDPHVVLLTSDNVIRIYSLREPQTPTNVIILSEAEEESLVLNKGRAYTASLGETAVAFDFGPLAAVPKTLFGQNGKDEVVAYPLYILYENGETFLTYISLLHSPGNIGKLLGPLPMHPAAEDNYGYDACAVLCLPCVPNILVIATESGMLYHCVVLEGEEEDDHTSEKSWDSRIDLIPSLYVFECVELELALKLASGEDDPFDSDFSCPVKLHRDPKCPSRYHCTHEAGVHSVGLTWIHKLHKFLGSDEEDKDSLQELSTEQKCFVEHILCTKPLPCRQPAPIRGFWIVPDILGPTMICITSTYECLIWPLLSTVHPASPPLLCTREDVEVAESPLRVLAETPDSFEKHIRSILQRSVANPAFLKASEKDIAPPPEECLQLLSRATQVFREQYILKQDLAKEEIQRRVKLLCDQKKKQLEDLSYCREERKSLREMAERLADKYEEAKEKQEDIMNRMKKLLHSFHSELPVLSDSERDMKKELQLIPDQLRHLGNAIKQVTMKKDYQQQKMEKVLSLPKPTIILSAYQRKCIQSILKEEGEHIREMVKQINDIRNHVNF
Assay: proximity ligation; Duolink PLA Fluorescent Detection (red), anti-mouse PLUS and anti-rabbit MINUS probes, on fixed MRC5, FADS 1 and FADS 2 fibroblasts; rabbit anti-rapsyn, rabbit or mouse anti-γ-tubulin, mouse anti-NUP88; foci mean a distance of at most 40 nm; foci per cell counted

Binder | binding
rapsyn (receptor-associated protein of the synapse) (protein, UniProt Q13702-1 1-412) MGQDQTKQQIEKGLQLYQSNQTEKALQVWTKVLEKSSDLMGRFRVLGCLVTAHSEMGRYKEMLKFAVVQIDTARELEDADFLLESYLNLARSNEKLCEFHKTISYCKTCLGLPGTRAGAQLGGQVSLSMGNAFLGLSVFQKALESFEKALRYAHNNDDAMLECRVCCSLGSFYAQVKDYEKALFFPCKAAELVNNYGKGWSLKYRAMSQYHMAVAYRLLGRLGSAMECCEESMKIALQHGDRPLQALCLLCFADIHRSRGDLETAFPRYDSAMSIMTEIGNRLGQVQALLGVAKCWVARKALDKALDAIERAQDLAEEVGNKLSQLKLHCLSESIYRSKGLQRELRAHVVRFHECVEETELYCGLCGESIGEKNSRLQALPCSHIFHLRCLQNNGTRSCPNCRRSSMKPGFV | binds
rapsyn E162K mutant protein (protein, UniProt Q13702-1 1-412) MGQDQTKQQIEKGLQLYQSNQTEKALQVWTKVLEKSSDLMGRFRVLGCLVTAHSEMGRYKEMLKFAVVQIDTARELEDADFLLESYLNLARSNEKLCEFHKTISYCKTCLGLPGTRAGAQLGGQVSLSMGNAFLGLSVFQKALESFEKALRYAHNNDDAMLKCRVCCSLGSFYAQVKDYEKALFFPCKAAELVNNYGKGWSLKYRAMSQYHMAVAYRLLGRLGSAMECCEESMKIALQHGDRPLQALCLLCFADIHRSRGDLETAFPRYDSAMSIMTEIGNRLGQVQALLGVAKCWVARKALDKALDAIERAQDLAEEVGNKLSQLKLHCLSESIYRSKGLQRELRAHVVRFHECVEETELYCGLCGESIGEKNSRLQALPCSHIFHLRCLQNNGTRSCPNCRRSSMKPGFV | binds
